In patent US20180022822A1, “NOVEL ANTI-FIBROBLAST ACTIVATION PROTEIN (FAP) BINDING AGENTS AND USES THEREOF” (Mabimmune Diagnostics AG, priority 2016, published 2018):
Positions count from the first letter of the chain named.

B1: NI-206.59B4: human-derived recombinant anti-FAP antibody; VH SEQ ID NO: 8, VL SEQ ID NO: 10 (antibody, listed as Homo sapiens, V domains shown)
VH: QVQLVQSGAEVKKPGASVKVSCKTSGYTFTDYYIHWVRQAPGQGLEWMGWINPNRGGTNYAQKFQGRVTMTRDTSIATAYMELSRLRSDDTAVYYCATASLKIAAVGTFDCWGQGTLVTVSS
VL: SYELTQPPSVSVSPGQTARITCSGDALSKQYAFWFQQKPGQAPILVIYQDTKRPSGIPGRFSGSSSGTTVTLTISGAQADDEADYYCQSADSSGTYVFGTGTKVTVL
B2: NI-206.18H2: human-derived recombinant anti-FAP antibody; VH SEQ ID NO: 41, VL SEQ ID NO: 43 (antibody, listed as Homo sapiens, V domains shown)
VH: QVQLQESGPRLVKPSETLSLTCTVSGYSISNGYYWGWIRQPPGQGLEWIASVWHSGNTYHNPSLKSRVTILVDTLKNQFSLNLKSVTAADTALYYCARSYTRNDVGAFETWGQGTMVTVSS
VL: SYELTQPPSVSVSPGQTARIACSGDELPKRYAYWYQQKSGQAPVLVMYEDTKRPSGIPERLSGSSSGTVTTLTISGAQVEDEADYYCYSTAPSGNHTFVFGTGTRVTVL
B3: NI-206.27E8: human-derived recombinant anti-FAP antibody; VH SEQ ID NO: 16, VL SEQ ID NO: 18 (antibody, listed as Homo sapiens, V domains shown)
VH: EVQLVESGGGLVEPGGSLRLSCAASGFTFSDAWMNWVRQAPGKGLEWVGRIKTKSDGGTTDYAAPVRGRFSISRDDSKNTLFLEMNSLKTEDTAIYYCFITVIVVSSESPLDHWGQGTLVTVSS
VL: SYELTQPPSVSVSPGQTARITCSGDELPKQYAYWYQQKPGQAPVLVIYKDRQRPSGIPERFSGSSSGTTVTLTISGVQAEDEADYYCQSAYSINTYVIFGGGTKLTVL
B4: NI-206.12G4: human-derived recombinant anti-FAP antibody; VH SEQ ID NO: 20, VL SEQ ID NO: 22 (antibody, listed as Homo sapiens, V domains shown)
VH: EVQLVESGGGLVKPGGSLRLSCAASGFTFSDYYMSWIRQAPGKGLEWISYISSGSSYTNYADSVKGRFTISRDNAKKSVYLEVNGLTVEDTAVYYCARVRYGDREMATIGGFDFWGQGTLVTVSS
VL: B3 VL with E26A, K38S, R51S, Q52E, Y91D, I93G, N94G, Y96S, V97R
B5: NI-206.82C2: human-derived recombinant anti-FAP antibody; VH SEQ ID NO: 2 or 4 (PIMC), VL SEQ ID NO: 6 (antibody, V domains shown)
VH: QVQLQQSGPGLVKPSQTLSLTCAISGDSVSSNSVTWNWIRQSPSRGLEWLGRTYYRSKWYNDYAVSVKGRITINPDTSKNQFYLQLKSVTPEDAAVYYCARDSSILYGDYWGQGTLVTVSS
VL: QAVLTQPSSLSASPGASASLTCTLPSGINVGTYRIFWFQQKPGSPPQYLLSYKSDSDNHQGSGVPSRFSGSKDASANAGILLISGLQSEDEADYYCMIWHSSAWVFGGGTKLTVL
B6: NI-206.22F7: human-derived recombinant anti-FAP antibody; VH SEQ ID NO: 12, VL SEQ ID NO: 14 (antibody, listed as Homo sapiens, V domains shown)
VH: EVQLVETGGGVVQPGRSLRLSCAASGFSFSTHGMYWVRQPPGKGLEWVAVISYDGSDKKYADSVKGRFTISRDNSKNTVYLEMSSVRAEDTALYYCFCRRDAFDLWGQGTMVTVSS
VL: SYVLTQPPSVSVSPGQTARITCSGDALPKKYAYWYQQKSGQAPVLVIYEDTKRPSGIPERFSGSSSGTMATLTISGAQVEDEADYYCYSTDSSGNYWVFGGGTEVTVL
B7: NI-206.17A6: human-derived recombinant anti-FAP antibody; VH SEQ ID NO: 24, VK SEQ ID NO: 26 (antibody, listed as Homo sapiens, V domains shown)
VH: QVQLQESGPGLVRSTETLSLTCLVSGDSINSHYWSWLRQSPGRGLEWIGYIYYTGPTNYNPSLKSRVSISLGTSKDQFSLKLSSVTAADTARYYCARNKVFWRGSDFYYYMDVWGKGTTVTVSS
VL: EIVLTQSPGTLSLSLGERATLSCRASQSLANNYLAWYQQKPGQAPRLLMYDASTRATGIPDRFSGSGSGTDFTLTISRLEPEDFAVYYCQQFVTSHHMYIFGQGTKVEIK

Test system: FAP
Assay: pepscan epitope mapping with overlapping, truncated and alanine-mutated FAP peptides
Assay type: binding, human
Conditions: for binding epitope (FAP sequence recognized): 188 linear 15-mer peptides, 11 amino acid overlap

| Molecule | binding epitope (FAP sequence recognized) | minimum epitope region (stepwise N- and C-terminal truncation of FAP 521-539) |
| --- | --- | --- |
| B1 | 53-SYKTFFP-59 | – |
| B2 | 501-[…]-511 | – |
| B3 | 169-NIYLKQR-175 | – |
| B4 | 481-[…]-495 | – |
| B5 | 525-[…]-535 | 528-FDRSK-532 |
| B6 | 381-[…]-391 | – |
| B7 | 77-[…]-87 | – |
